Patent US20090099169A1, “Benzofuran Compounds As EP1 Receptor Antagonists” (GLAXO GROUP LIMITED, priority 2006, published 2009)
Structures can show the parent of a compound that is named as a salt. Some of these results come from one statement about several compounds together.

target: T1, human EP1 receptor (Homo sapiens, UniProt P34995); assay: Binding assay for the human prostanoid EP1 receptor (radioligand competition); design: expressed in transfected cells; host or cells: CHO-K1 (membranes); conditions: CHO-K1 membranes; [3H]-PGE2 for Examples 1-17, 19, 33, 34, 60 and 61, 3-{2-[5-Bromo-2-(2,4-difluorobenzyloxy)-phenyl]-5-methyl-pyrrol-1-yl}-6-[3H3-methoxy]methoxy-benzoic acid for the remaining; averages of a number of experiments
T1 sequence (P34995 1-402): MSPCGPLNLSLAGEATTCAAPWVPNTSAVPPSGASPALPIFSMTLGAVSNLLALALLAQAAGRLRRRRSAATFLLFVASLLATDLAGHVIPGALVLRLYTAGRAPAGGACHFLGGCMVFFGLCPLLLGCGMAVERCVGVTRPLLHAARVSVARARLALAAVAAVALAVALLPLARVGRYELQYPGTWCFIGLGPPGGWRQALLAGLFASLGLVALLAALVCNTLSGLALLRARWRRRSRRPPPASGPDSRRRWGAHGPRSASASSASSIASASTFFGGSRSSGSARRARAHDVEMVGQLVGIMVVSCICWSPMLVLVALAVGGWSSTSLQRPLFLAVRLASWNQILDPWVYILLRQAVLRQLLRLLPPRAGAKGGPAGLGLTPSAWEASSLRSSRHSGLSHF
Experimental: Compound potencies are determined using a radioligand binding assay. In this assay compound potencies are determined from their ability to compete with tritiated prostaglandin E2 ([^3H]-PGE2) for binding to the human EP1 receptor.
This assay utilises Chinese hamster ovary-K1 (CHO-K1) cells into which a stable vector containing the EP1 cDNA has previously been transfected. Cells are cultured in suitable flasks containing culture medium such as DMEM:F-12 supplemented with 10% v/v foetal calf serum, 2 mM L-glutamine, 0.25 mg/ml geneticin, 10 μg/ml puromycin and 10 μM indomethacin.
Cells are detached from the culture flasks by incubation in calcium and magnesium free phosphate buffered saline containing 1 mM disodium ethylenediaminetetraacetic acid (Na2EDTA) and […] indomethacin for 5 min. The cells are isolated by centrifugation at 250×g for 5mins and suspended in an ice cold buffer such as 50 mM Tris, 1 mM Na2EDTA, 140 mM NaCl, 10 μM indomethacin (pH 7.4). The cells are homogenised using a Polytron tissue disrupter (2×10 s burst at full setting), centrifuged at 48,000×g for 20mins and the pellet containing the membrane fraction is washed (optional) three times by suspension and centrifugation at 48,000×g for 20mins. The final membrane pellet is suspended in an assay buffer such as 10 mM 2-[N-morpholino]ethanesulphonic acid, 1 mM Na2EDTA, 10 mM MgCl2 (pH 6). Aliquots are frozen at −80° C. until required.
(§1) For the binding assay the cell membranes, competing compounds and [^3H]-PGE2 (3 nM final assay concentration) are incubated in a final volume of 100 μl for 30 min at 30° C. All reagents are prepared in assay buffer. Reactions are terminated by rapid vacuum filtration over GF/B filters using a Brandell cell harvester. The filters are washed with ice cold assay buffer, dried and the radioactivity retained on the filters is measured by liquid scintillation counting in Packard TopCount scintillation counter.
The data are analysed using non linear curve fitting techniques to determine the concentration of compound producing 50% inhibition of specific binding (IC50).
Alternatively a similar assay may be carried out using 3-{2-[5-Bromo-2-(2,4-difluoro-benzyloxy)-phenyl]-5-methyl-pyrrol-1-yl}-6-[^3H3-methoxy]methoxy-benzoic acid instead of [^3H]-PGE2.
For the binding assay using 3-{2-[5-Bromo-2-(2,4-difluoro-benzyloxy)-phenyl]-5-methyl-pyrrol-1-yl}-6-[^3H3-methoxy]methoxy-benzoic acid instead of [^3H]-PGE2 the assay is carried out using a similar procedure to that described above using [^3H]-PGE2 with the following changes:
as §1, with “The” for “For the binding assay the”, “3-{2-[5-Bromo-2-(2,4-difluoro-benzyloxy)-phenyl]-5-methyl-pyrrol-1-yl}-6-[^3H3-methoxy]methoxy-benzoic acid (0.2” for “[^3H]-PGE2 (3”, “400” for “100”, “45” for “30”, “37°” for “30°”, “water at ambient temperature,” for “ice cold assay buffer,”
The preparation of 3-{2-[5-Bromo-2-(2,4-difluoro-benzyloxy)-phenyl]-5-methyl-pyrrol-1-yl}-6-methoxy-benzoic acid is described in WO 03/101959 and in Hall et al, Biorg. Med. Chem. Lett., 2007, 17, 916-920. The tritiated version may be prepared via conventional routes, e.g. from 3-{2-[5-bromo-2-(2,4-difluoro-benzyloxy)-phenyl]-5-methyl-pyrrol-1-yl}-6-hydroxy-benzoic acid or 3-{2-[5-bromo-2-(2,4-difluoro-benzyloxy)-phenyl]-5-methyl-pyrrol-1-yl}-6-hydroxy-benzoic acid methyl ester.

Q: For `CCN1CCC(CNC(=O)c2cc(C)n(Cc3cc(Cl)cc4cc(C(C)C)oc34)n2)CC1` [Example 36, 1-{[5-chloro-2-(1-methylethyl)-1-beenzofuran-7-yl]methyl}-N-[(1-ethyl-4-piperidinyl)methyl]-5-methyl-1H-pyrazole-3-carboxamidehydrochloride], which “pIC50 value (binding assay for the human prostanoid EP1 receptor)” value (“pIC50 value” below) is on record?
A: Its value is ≥ 6.

Q: `Cc1cc(NC(=O)[C@H]2CC[C@@H](O)CC2)nn1Cc1cc(Cl)cc2cc(C(C)C)oc12` [Example 62, cis-N-(1-{[5-Chloro-2-(1-methylethyl)-1-benzofuran-7-yl]methyl}-5-methyl-1H-pyrazol-3-yl)-4-hydroxycyclohexanecarboxamide] was tested. Which “pIC50 value” value did it give?
A: Its value is ≥ 6.

Q: With `CC(C)c1cc2cc(Cl)cc(Cc3cccc(C(=O)O)n3)c2o1` [Example 24] as the molecule, how does the “pIC50 value” value read?
A: Its value is ≥ 6.

Q: For `CC(C)c1cc2cc(Cl)cc(Cc3ccc(C(=O)Nc4ccc(CO)cc4)o3)c2o1` [Example 72, 5-{[5-Chloro-2-(1-methylethyl)-1-benzofuran-7-yl]methyl}-N-[4-(hydroxymethyl)phenyl]-2-furancarboxamide], which “pIC50 value” value is on record?
A: Its value is ≥ 6.

Q: `CC(C)c1cc2cc(Cl)cc(Cc3ccc(C(=O)NCC(C)(C)N)o3)c2o1` [Example 59, N-(2-Amino-2-methylpropyl)-5-{[5-chloro-2-(1-methylethyl)-1-benzofuran-7-yl]methyl}-2-furancarboxamidehydrochloride] was tested. Which “pIC50 value” value did it give?
A: Its value is ≥ 6.

Q: For `CC(C)c1cc2cc(Cl)cc(Cc3ccc(C(=O)Nc4ccc(CN5CCOCC5)cc4)o3)c2o1` [Example 54, 5-{[5-Chloro-2-(1-methylethyl)-1-benzofuran-7-yl]methyl}-N-[4-(4-morpholinylmethyl)phenyl]-2-furancarboxamide Hydrochloride], which “pIC50 value” value is on record?
A: Its value is ≥ 6.

Q: With `Cc1cc(NC(=O)c2ccc(CN3CCCC3)cc2)nn1Cc1cc(Cl)cc2cc(C(C)C)oc12` [Example 67] as the molecule, how does the “pIC50 value” value read?
A: Its value is ≥ 6.

Q: For `Cc1cc(C(=O)Nc2ccc(CO)cc2)nn1Cc1cc(Br)cc2cc(C(C)C)oc12` [Example 71], which “pIC50 value” value is on record?
A: Its value is ≥ 6.

Q: For `CC(C)c1cc2cc(Cl)cc(Cc3ccc(-c4nc5ccccc5[nH]4)o3)c2o1` [Example 2, 2-(5-{[5-Chloro-2-(1-methylethyl)-1-benzofuran-7-yl]methyl}-2-furanyl)-1H-benzimidazole Hydrochloride], which “pIC50 value” value is on record?
A: Its value is ≥ 6.

Q: `CCO[C@H]1CC[C@H](NC(=O)c2cc(C)n(Cc3cc(Cl)cc4cc(C(C)C)oc34)n2)CC1` [Example 65, 1-{[5-Chloro-2-(1-methylethyl)-1-benzofuran-7-yl]methyl}-N-[trans-4-(ethyloxy)cyclohexyl]-5-methyl-1H-pyrazole-3-carboxamide] was tested. Which “pIC50 value” value did it give?
A: The value was ≥ 6.

Q: With `CC(C)c1cc2cc(Cl)cc(Cc3ccc(C(=O)Nc4ccc(CN5CCC(O)CC5)cc4)o3)c2o1` [Example 55, 5-{[5-Chloro-2-(1-methylethyl)-1-benzofuran-7-yl]methyl}-N-{4-[(4-hydroxy-1-piperidinyl)methyl]phenyl}-2-furancarboxamide Hydrochloride] as the molecule, how does the “pIC50 value” value read?
A: The value was ≥ 6.

Q: How did the “pIC50 value” value turn out when `Cc1cc(NC(=O)C2CCOCC2)nn1Cc1cc(C#N)cc2cc(C(C)C)oc12` [Example 70, N-(1-{[5-Cyano-2-(1-methylethyl)-1-benzofuran-7-yl]methyl}-5-methyl-1H-pyrazol-3-yl)tetrahydro-2H-pyran-4-carboxamide] was run?
A: Its value is ≥ 6.

Q: How did the “pIC50 value” value turn out when `CCCc1cc2cc(Cl)cc(Cn3nc(C(=O)NN4CCOCC4)cc3C)c2o1` [Example 30, 1-[(5-chloro-2-propyl-1-benzofuran-7-yl)methyl]-5-methyl-N-4-morpholinyl-1H-pyrazole-3-carboxamide] was run?
A: Its value is ≥ 6.

Q: Which “pIC50 value” value does the source give for `Cc1cc(C(=O)NN2CCOCC2)nn1Cc1cc(Cl)cc2cc(C3CC3)oc12` [Example 31, 1-[(5-Chloro-2-cyclopropyl-1-benzofuran-7-yl)methyl]-5-methyl-N-4-morpholinyl-1H-pyrazole-3-carboxamide] here?
A: The value was ≥ 6.

Q: How did the “pIC50 value” value turn out when `Cc1cc(C(=O)Nc2ccc(CN3CCCC3)cc2)nn1Cc1cc(Br)cc2cc(C(C)C)oc12` [Example 51, 1-{[5-Bromo-2-(1-methylethyl)-1-benzofuran-7-yl]methyl}-5-methyl-N-[4-(1-pyrrolidinylmethyl)phenyl]-1H-pyrazole-3-carboxamidehydrochloride] was run?
A: The value was ≥ 6.

Q: How did the “pIC50 value” value turn out when `Cc1cc(C(=O)N2CCOCC2)nn1Cc1cc(Cl)cc2cc(C3CC3)oc12` [Example 32, 4-({1-[(5-chloro-2-cyclopropyl-1-benzofuran-7-yl)methyl]-5-methyl-1H-pyrazol-3-yl}carbonyl)morpholine] was run?
A: The value was ≥ 6.

Q: For `CC(C)c1cc2cc(Cl)cc(Cc3cccc(C(=O)NN4CCOCC4)n3)c2o1` [Example 44, 6-{[5-Chloro-2-(1-methylethyl)-1-benzofuran-7-yl]methyl}-N-4-morpholinyl-2-pyridinecarboxammide], which “pIC50 value” value is on record?
A: Its value is ≥ 6.

Q: How did the “pIC50 value” value turn out when `CC(C)NC(=O)c1ccc(Cc2cc(Cl)cc3cc(C(C)C)oc23)o1` [Example 38, 5-{[5-Chloro-2-(1-methylethyl)-1-benzofuran-7-yl]methyl}-N-(1-methylethyl)-2-furancarboxamide] was run?
A: Its value is ≥ 6.

Q: With `Cc1cc(-c2nc3ccccc3[nH]2)nn1Cc1cc(Cl)cc2cc(C(C)C)oc12` [Example 5, 2-(1-{[5-Chloro-2-(1-methylethyl)-1-benzofuran-7-yl]methyl}-5-methyl-1H-pyrazol-3-yl)-1H-benzimidazole Hydrochloride] as the molecule, how does the “pIC50 value” value read?
A: Its value is ≥ 6.

Q: How did the “pIC50 value” value turn out when `CCN1CCC(NC(=O)c2cc(C)n(Cc3cc(Cl)cc4cc(C(C)C)oc34)n2)CC1` [Example 35, 1-{[5-chloro-2-(1-methylethyl)-1-benzofuran-7-yl]methyl}-N-(1-ethyl-4-piperidinyl)-5-methyl-1H-pyrazole-3-carboxamide Hydrochloride] was run?
A: Its value is ≥ 6.

Q: `CC(C)c1cc2cc(Cl)cc(Cc3ccc(C(=O)Nc4c(F)cccc4F)o3)c2o1` [Example 8, 5-{[5-Chloro-2-(1-methylethyl)-1-benzofuran-7-yl]methyl}-N-(2,6-difluorophenyl)-2-furancarboxamide] was tested. Which “pIC50 value” value did it give?
A: The value was ≥ 6.

Q: Which “pIC50 value” value does the source give for `CO[C@H]1CC[C@H](NC(=O)c2cc(C)n(Cc3cc(Cl)cc4cc(C(C)C)oc34)n2)CC1` [Example 64, 1-{[5-Chloro-2-(1-methylethyl)-1-benzofuran-7-yl]methyl}-5-methyl-N-[trans-4-(methyloxy)cyclohexyl]-1H-pyrazole-3-carboxamide] here?
A: Its value is ≥ 6.

Q: With `Cc1cc(C(=O)NC2CCNCC2)nn1Cc1cc(Cl)cc2cc(C(C)C)oc12` [Example 33, 1-{[5-chloro-2-(1-methylethyl)-1-benzofuran-7-yl]methyl}-5-methyl-N-4-piperidinyl-1H-pyrazole-3-carboxamide Hydrochloride] as the molecule, how does the “pIC50 value” value read?
A: The value was ≥ 6.
